Results taken from patent US12508278B2, “Lipid nanoparticle compositions and methods of formulating the same” (ModernaTX, Inc., priority 2021, dated 2025).
Some results were stated once for a whole list of compounds, not compound by compound.

Test: IG (lipid-mRNA adduct impurity) in binary mixtures of RNA and Compound III, ion pair reversed phase HPLC
Type: physicochemical
From the text: To detect and quantify the amount of IG present in LNP formulations comprising polynucleotides and lipid, a protocol was developed (FIG. 2) that included (1) extraction of the polynucleotide molecules (e.g. precipitation, liquid: liquid extraction); (2) assessment of integrity (e.g. purity, length) of the isolated polynucleotides by known methods (e.g. fragment analyzer, gel electrophoresis); and (3) analysis of the isolated polynucleotides by HPLC.
RNA was extracted from the LNP formulation by precipitation in ammonium acetate in isopropanol; resuspended in water to target a final RNA concentration of 0.1 mg/mL; and assessed by fragment analyzer capillary electrophoresis and ion pair reversed phase HPLC (performed on a Thermo DNApac RP 100×2.1 mm column at 65° C., with mobile phases containing 50 mM dibutylammonium acetate and 100 mM triethylammonium acetate in water and acetonitrile). Elution with an acetonitrile gradient provided an RNA separation primarily driven by mRNA length and sensitive to any added hydrophobic elements. Two prominent peaks were apparent on the HPLC chromatogram (FIG. 2), including a “main peak” comprising non-adduct mRNA and an “IG” peak comprising mRNA with one or more covalent modifications. The mass fraction of RNA containing at least one lipid adduct was determined by integrating the area under the curve (AUC) of all RNA peaks (including products shorter than the full-length product, the full-length product, and the hydrophobic modified RNA) and taking the late-eluting region as an area percent of the total peak area.
Compound III was dissolved in ethanol at a concentration of 4 mg/mL, and the RNA diluted in sodium acetate buffer pH 5.5; the RNA and lipids were then mixed in 25% ethanol. Samples were held at 25° C., and the RNA was periodically extracted by precipitation in isopropanol and analyzed by ion pair reversed phase (FIGS. 5 and 6A, data marked by *).

[1] = 1 mM agent, 25 C, after 18 hours

Row | SMILES | percentage of IG [1] | percentage of IG (5 mM agent, after 13 days of incubation at 25 C)
1 | O=S([O-])S(=O)(=O)[O-].[K+].[K+] [potassium metabisulfite] | less than 10% | less than 10%
2 | O=C(O)CCP(CCC(=O)O)CCC(=O)O [TCEP, tris(2-carboxyethyl)phosphine] | less than 10% | 
